Source: PubChem BioAssay AID1259254 (NCATS, 2017)

- Purpose: 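Genome-wide screen for genes that prevent DNA re-replication in cancer cells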 (primary screen)
- Cells: human HCT116 colorectal cancer cells
- Reagent: single siRNA against human genes
- Duration: 3 days
- Measurement: 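Nuclei stained with Hoechst and imaged; cell-cycle phase assigned by DNA content; G2 share scaled per plate, non-targeting siRNA 0%, GMNN siRNA 100%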
- Reading the numbers: G2 robust z-score and G2 cells, % of GMNN control: higher = more G2 cells, more excess DNA replication; raw share of cells in G2: higher = larger share of cells with G2 DNA content
- Hit rule: 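An siRNA counts as active if its G2 robust z-score lies at least 5 MADs above the screen median; here such calls match roughly 38% of GMNN control or more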
Shown is an unselected part of about 59,000 reagents. About 1,550 of them (2.6%) count as active. 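G2 share is only a proxy for re-replication; each gene was hit by three separate siRNAs, and active genes were retested.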 Raw values are not corrected between plates. A number with no mark means an inactive call. The numbers tell different reagents against one gene apart. The record does not give: the amount of reagent.

gene symbol	reagent no.	G2 robust z-score	G2 cells, % of GMNN control	raw share of cells in G2 (%)
NDNF (neuron derived neurotrophic factor)	1	-0.544	-0.861	2.47
NDNF (neuron derived neurotrophic factor)	2	-0.842	-2.96	3.29
NDNF (neuron derived neurotrophic factor)	3	2.09	17.7	12.5
NRROS (negative regulator of reactive oxygen species)	1	2.42	20	14.6
NRROS (negative regulator of reactive oxygen species)	2	-0.94	-3.64	3.54
NRROS (negative regulator of reactive oxygen species)	3	-0.697	-1.94	3.58
SLC25A53	1	6.99 (active)	52.2	23.3
SLC25A53	2	3.61	28.3	16
SLC25A53	3	0.447	6.11	8.55
CACFD1 (calcium channel flower domain containing 1)	1	-0.94	-3.65	3.55
CACFD1 (calcium channel flower domain containing 1)	2	-0.725	-2.14	3.25
CACFD1 (calcium channel flower domain containing 1)	3	-0.432	-0.0749	3.15
VPS13A (vacuolar protein sorting 13 homolog A)	1	2.39	19.8	12.7
VPS13A (vacuolar protein sorting 13 homolog A)	2	-0.849	-3.01	2.89
VPS13A (vacuolar protein sorting 13 homolog A)	3	0.019	3.1	4.33
METTL13 (methyltransferase 13, eEF1A N-terminus and K55)	1	0.916	9.41	6.97
METTL13 (methyltransferase 13, eEF1A N-terminus and K55)	2	1.62	14.4	10.3
METTL13 (methyltransferase 13, eEF1A N-terminus and K55)	3	-0.426	-0.0333	3.18
UNC93A (unc-93 homolog A)	1	2.05	17.4	8.94
UNC93A (unc-93 homolog A)	2	0.417	5.9	5.72
UNC93A (unc-93 homolog A)	3	2.37	19.6	12.5
APIP (APAF1 interacting protein)	1	0.0167	3.08	4.98
APIP (APAF1 interacting protein)	2	-0.858	-3.07	4.56
APIP (APAF1 interacting protein)	3	-1.11	-4.87	2.44
H2BC5 (H2B clustered histone 5)	1	4.63	35.6	17.5
H2BC5 (H2B clustered histone 5)	2	2.53	20.8	15
H2BC5 (H2B clustered histone 5)	3	0.134	3.91	5.52
MOG (myelin oligodendrocyte glycoprotein)	1	-0.517	-0.668	4.69
MOG (myelin oligodendrocyte glycoprotein)	2	-0.253	1.19	4.69
MOG (myelin oligodendrocyte glycoprotein)	3	-0.497	-0.531	3.16
C20orf202 (chromosome 20 open reading frame 202)	1	-0.789	-2.58	2.87
C20orf202 (chromosome 20 open reading frame 202)	2	1.52	13.7	8.95
C20orf202 (chromosome 20 open reading frame 202)	3	2.01	17.1	11.9
QSER1 (glutamine and serine rich 1)	1	3	24.1	14.4
QSER1 (glutamine and serine rich 1)	2	1.01	10.1	8.71
QSER1 (glutamine and serine rich 1)	3	-0.874	-3.18	1.51
FOSB (FosB proto-oncogene, AP-1 transcription factor subunit)	1	-0.406	0.111	3.7
FOSB (FosB proto-oncogene, AP-1 transcription factor subunit)	2	1.63	14.4	10.5
FOSB (FosB proto-oncogene, AP-1 transcription factor subunit)	3	-0.887	-3.27	4.02
MLPH (melanophilin)	1	-0.767	-2.43	3.49
MLPH (melanophilin)	2	-0.14	1.98	4.94
MLPH (melanophilin)	3	-0.495	-0.517	5.43
PXDNL (peroxidasin like)	1	-0.954	-3.74	4.17
PXDNL (peroxidasin like)	2	-0.607	-1.31	4.22
PXDNL (peroxidasin like)	3	-0.788	-2.58	3.62
RPL9P25 (ribosomal protein L9 pseudogene 25)	1	3.7	29	11.4
RPL9P25 (ribosomal protein L9 pseudogene 25)	2	0.0696	3.46	4.83
RPL9P25 (ribosomal protein L9 pseudogene 25)	3	-0.919	-3.5	1.88
